Data as given in PubChem BioAssay AID504784 (Drosophila RNAi Screening Center, 2011)
Assay: 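Fly genes whose silencing alters how much lipid cells keep in droplets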 (primary screen). System: Drosophila Kc167 embryonic cells. Reagent: long dsRNA against Drosophila genes, about 250 ng dsRNA per well. Time to read-out: 4 days. Conditions: cells fed 400 µM oleic acid bound to BSA. Detection: 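Cells imaged and segmented; ratio of lipid droplet area to nuclear area, log-transformed, then normalised as a B-score over the screen; higher means more stored lipid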. Scale: droplet/nuclear area B-score: higher = more stored lipid (overstorage).
The screen tested about 17,000 reagents; shown is a random part of those that have a named target and a result. 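Each column is one replicate's B-score; the combined score over replicates was not deposited, so single values may mislead.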 Further read-outs or replicates are left out here. Reagent sequences are not shown.

For CG10340 [SID104194024], what does the deposit list?
droplet/nuclear area B-score, replicate 1: 4.17

Which result is listed for AttA (Attacin-A) [SID104185718]?
droplet/nuclear area B-score, replicate 1: -0.955

With Lcp9 (Larval cuticle protein 9) [SID104184079], what was measured?
droplet/nuclear area B-score, replicate 1: 0.266

How did the screen score c11.1 [SID104198541]?
droplet/nuclear area B-score, replicate 1: -0.118

Which result is listed for Gr64f (Gustatory receptor 64f) [SID104188239]?
droplet/nuclear area B-score, replicate 1: 1.06

For flr (flare) [SID104189579], what does the deposit list?
droplet/nuclear area B-score, replicate 1: -0.293

How did the screen score CG14183 [SID104189974]?
droplet/nuclear area B-score, replicate 1: -0.269

How did the screen score maf-S [SID104187140]?
droplet/nuclear area B-score, replicate 1: -0.59

Which result is listed for Neu2 (Neuroectoderm-expressed 2) [SID104191611]?
droplet/nuclear area B-score, replicate 1: -0.336

For CG31104 [SID104194450], what does the deposit list?
droplet/nuclear area B-score, replicate 1: -1.17

With CG16749 [SID104194938], how do the results read?
droplet/nuclear area B-score, replicate 1: -0.285

For CG1143 [SID104187980], what was measured?
droplet/nuclear area B-score, replicate 1: 0.683

What is on record for Ugt37A2 (UDP-glycosyltransferase family 37 member A2) [SID104195653]?
droplet/nuclear area B-score, replicate 1: -0.444

For Cp19 (Chorion protein 19) [SID104190913], how do the results read?
droplet/nuclear area B-score, replicate 1: -0.921

How did the screen score Irc (Immune-regulated catalase) [SID104196246]?
droplet/nuclear area B-score, replicate 1: -0.092

For AQP (aquaporin) [SID104185914], how do the results read?
droplet/nuclear area B-score, replicate 1: -0.904

How did the screen score CG32733 (retired record) [SID104197273]?
droplet/nuclear area B-score, replicate 1: 2.25

For CG5921 [SID104197223], what was measured?
droplet/nuclear area B-score, replicate 1: 0.807

With CG5921 [SID104198182], what does the deposit list?
droplet/nuclear area B-score, replicate 1: 1.42

For CG13055 [SID104189728], what does the deposit list?
droplet/nuclear area B-score, replicate 1: -1.35

What did the screen give for tld (tolloid) [SID104196876]?
droplet/nuclear area B-score, replicate 1: 3.47

With insc (inscuteable) [SID104184487], what was measured?
droplet/nuclear area B-score, replicate 1: 2.39

How did the screen score Fbw5 (F-box and WD repeat domain containing 5) [SID104182938]?
droplet/nuclear area B-score, replicate 1: -2.28

What is on record for Cpr11A (Cuticular protein 11A) [SID104199653]?
droplet/nuclear area B-score, replicate 1: -1.24

With CG7963 [SID104196147], what was measured?
droplet/nuclear area B-score, replicate 1: -0.288

For CG7453 [SID104199838], what was measured?
droplet/nuclear area B-score, replicate 1: -0.402

How did the screen score CG15456 [SID104200319]?
droplet/nuclear area B-score, replicate 1: -1.59

4 neighbouring entries from above:
CG31104 [SID104194450] → droplet/nuclear area B-score, replicate 1 = -1.17
CG16749 [SID104194938] → droplet/nuclear area B-score, replicate 1 = -0.285
CG1143 [SID104187980] → droplet/nuclear area B-score, replicate 1 = 0.683
Ugt37A2 (UDP-glycosyltransferase family 37 member A2) [SID104195653] → droplet/nuclear area B-score, replicate 1 = -0.444
